Assay results as given in the supplement of paper PMC4604168 (melanoma cell lines).
This is one part of the list. Single values are uncertain, as repeats are few or missing.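 Imaging used 1,536-well plates; nuclei positive for cleaved PARP by antibody were divided by total DNA-stained nuclei to yield the apoptosis fraction. Doses for screening kept most cells viable, and cell lines differ markedly in resting and induced cleaved-PARP levels.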

Each compound was assayed on RVH-421 (assay: cleaved PARP positive nuclei fraction relative to DMSO control; melanoma cells; higher = more apoptosis). Settings: library dose: low library concentration; 72 h.

Compound	cleaved PARP positive nuclei fraction [%]
Cn1cnc2c(F)c(Nc3ccc(Br)cc3Cl)c(C(=O)NOCCO)cc21 [selumetinib] + Cn1c(Nc2ccc(C(F)(F)F)cc2)nc2cc(Oc3ccnc(-c4ncc(C(F)(F)F)[nH]4)c3)ccc21 [CHIR265] (first compound 0.015 µM, partner dose 0.08 µM)	209
NC1(c2ccc(-c3nc4ccn5c(=O)[nH]nc5c4cc3-c3ccccc3)cc2)CCC1 + c1cc(-c2cnn3cc(-c4ccc(OCCN5CCCCC5)cc4)cnc23)ccn1 [Dorsomorphin] (first compound 0.4 µM, partner dose 0.4 µM)	133
CC(=O)O[C@@]12CO[C@@H]1C[C@H](O)[C@@]1(C)C(=O)[C@H](O)C3=C(C)[C@@H](OC(=O)[C@H](O)[C@@H](NC(=O)OC(C)(C)C)c4ccccc4)C[C@@](O)([C@@H](OC(=O)c4ccccc4)[C@H]21)C3(C)C [Docetaxel] + CC(=O)c1c(C)c2cnc(Nc3ccc(N4CCNCC4)cn3)nc2n(C2CCCC2)c1=O [palbociclib] (first compound 0.0001 µM, partner dose 0.04 µM)	382
COc1ccc(C2=N[C@@H](c3ccc(Cl)cc3)[C@@H](c3ccc(Cl)cc3)N2C(=O)N2CCNC(=O)C2)c(OC(C)C)c1 [Nutlin-3] + Nc1nc(F)nc2c1ncn2[C@@H]1O[C@H](CO)[C@@H](O)[C@@H]1O [fludarabine] (first compound 0.1 µM, partner dose 0.2 µM)	55.9
CCN(CC)CCNC(=O)c1c(C)[nH]c(/C=C2\C(=O)Nc3ccc(F)cc32)c1C [sunitinib] + C=C(c1ccc(C(=O)O)cc1)c1cc2c(cc1C)C(C)(C)CCC2(C)C [Bexarotene] (first compound 0.4 µM, partner dose 2 µM)	39.7
NC(=O)c1ccc(N(C(N)=O)c2c(F)cccc2F)nc1-c1ccc(F)cc1F + Cn1nnc2c(C(N)=O)ncn2c1=O [temozolomide] (first compound 0.4 µM, partner dose 2 µM)	198
CC1(C)CCC(c2ccc(Cl)cc2)=C(CN2CCN(c3ccc(C(=O)NS(=O)(=O)c4ccc(N[C@H](CCN5CCOCC5)CSc5ccccc5)c(S(=O)(=O)C(F)(F)F)c4)cc3)CC2)C1 + CN(c1ncccc1CNc1nc(Nc2ccc3c(c2)CC(=O)N3)ncc1C(F)(F)F)S(C)(=O)=O [PF562271] (first compound 0.4 µM, partner dose 0.08 µM)	308
Cn1sc(=O)n(Cc2ccccc2)c1=O + CC(C)C[C@H](NC(=O)[C@H](Cc1ccccc1)NC(=O)c1cnccn1)B(O)O [Bortezomib] (first compound 0.4 µM, partner dose 0.001 µM)	90.9
C[C@]1(O)C[C@@H](c2nc(-c3ccc4ccc(-c5ccccc5)nc4c3)c3c(N)nccn32)C1 + C=CCn1c(=O)c2cnc(Nc3ccc(N4CCN(C)CC4)cc3)nc2n1-c1cccc(C(C)(C)O)n1 [MK1775] (first compound 0.4 µM, partner dose 0.02 µM)	89.9
CS(=O)(=O)c1ccc(C(=O)Nc2ccc(Cl)c(-c3ccccn3)c2)c(Cl)c1 [vismodegib] + C[C@@H](Oc1cc(-c2cnn(C3CCNCC3)c2)cnc1N)c1c(Cl)ccc(F)c1Cl [Crizotinib] (first compound 1 µM, partner dose 0.2 µM)	59.3
CN(c1ncccc1CNc1nc(Nc2ccc3c(c2)CC(=O)N3)ncc1C(F)(F)F)S(C)(=O)=O + Oc1cc(-c2nc(-c3ccccc3)[nH]c2-c2ccncc2)ccc1Cl [L779450] (first compound 0.08 µM, partner dose 0.2 µM)	120
NC(=O)c1ccc(N(C(N)=O)c2c(F)cccc2F)nc1-c1ccc(F)cc1F + COc1ccc(Cl)c(Nc2nc3ccccc3nc2NS(=O)(=O)c2cccc(NC(=O)C(C)(C)N)c2)c1 [XL147] (first compound 0.4 µM, partner dose 0.8 µM)	273
CN(c1ncccc1CNc1nc(Nc2ccc3c(c2)CC(=O)N3)ncc1C(F)(F)F)S(C)(=O)=O + Cc1cc(Nc2cc(N3CCN(C)CC3)nc(/C=C/c3ccccc3)n2)n[nH]1 [ENMD2076] (first compound 0.08 µM, partner dose 0.04 µM)	24
CCCCCCCCc1ccc(CCC(N)(CO)CO)cc1 [fingolimod] + c1cc(-c2cnn3cc(-c4ccc(OCCN5CCCCC5)cc4)cnc23)ccn1 [Dorsomorphin] (first compound 2 µM, partner dose 0.4 µM)	425
CS(=O)(=O)c1ccc(C(=O)Nc2ccc(Cl)c(-c3ccccn3)c2)c(Cl)c1 [vismodegib] + CC(=O)O[C@@]12CO[C@@H]1C[C@H](O)[C@@]1(C)C(=O)[C@H](O)C3=C(C)[C@@H](OC(=O)[C@H](O)[C@@H](NC(=O)OC(C)(C)C)c4ccccc4)C[C@@](O)([C@@H](OC(=O)c4ccccc4)[C@H]21)C3(C)C [Docetaxel] (first compound 1 µM, partner dose 0.0001 µM)	138
CC(=O)O[C@@]12CO[C@@H]1C[C@H](O)[C@@]1(C)C(=O)[C@H](O)C3=C(C)[C@@H](OC(=O)[C@H](O)[C@@H](NC(=O)OC(C)(C)C)c4ccccc4)C[C@@](O)([C@@H](OC(=O)c4ccccc4)[C@H]21)C3(C)C [Docetaxel] + COc1cc(Nc2ncc(F)c(Nc3ccc4c(n3)NC(=O)C(C)(C)O4)n2)cc(OC)c1OC [Tamatinib] (first compound 0.0001 µM, partner dose 0.4 µM)	86.2
CS(=O)(=O)c1ccc(C(=O)Nc2ccc(Cl)c(-c3ccccn3)c2)c(Cl)c1 [vismodegib] + CC1(C)NC(=O)N(c2ccc([N+](=O)[O-])c(C(F)(F)F)c2)C1=O [nilutamide] (first compound 1 µM, partner dose 1 µM)	87.5
CCN(CC)CCNC(=O)c1c(C)[nH]c(/C=C2\C(=O)Nc3ccc(F)cc32)c1C [sunitinib] + COCC[n+]1c2c(n(Cc3cnccn3)c1C)C(=O)c1ccccc1C2=O [YM155] (first compound 0.4 µM, partner dose 0.0004 µM)	233
NC1(c2ccc(-c3nc4ccn5c(=O)[nH]nc5c4cc3-c3ccccc3)cc2)CCC1 + Nc1ncn([C@H]2C[C@H](O)[C@@H](CO)O2)c(=O)n1 [decitabine] (first compound 0.4 µM, partner dose 0.1 µM)	306

2 records picked at random from the list so far:
Compound	cleaved PARP positive nuclei fraction [%]
CS(=O)(=O)c1ccc(C(=O)Nc2ccc(Cl)c(-c3ccccn3)c2)c(Cl)c1 [vismodegib] + C[C@@H](Oc1cc(-c2cnn(C3CCNCC3)c2)cnc1N)c1c(Cl)ccc(F)c1Cl [Crizotinib] (first compound 1 µM, partner dose 0.2 µM)	59.3
COc1ccc(C2=N[C@@H](c3ccc(Cl)cc3)[C@@H](c3ccc(Cl)cc3)N2C(=O)N2CCNC(=O)C2)c(OC(C)C)c1 [Nutlin-3] + Nc1nc(F)nc2c1ncn2[C@@H]1O[C@H](CO)[C@@H](O)[C@@H]1O [fludarabine] (first compound 0.1 µM, partner dose 0.2 µM)	55.9
